Some results were stated once for a whole list of compounds, not compound by compound.
Tested on: Neuronal tubulin
Assay: Tubulin polymerization inhibition assay
Type: biochemical
Details: absorbance at 340 nm, 37° C., 60 min, Vmax

Compound | IC50
CS(=O)(=O)Nc1cc(-c2ccc(F)cc2F)cc(-c2cccc3[nH]ccc23)c1 [N-[5-(1H-Indol-4-yl)-2′,4′-difluoro-biphenyl-3-yl]-methanesulfonamide] | < 20 µM
N#Cc1ccc(Nc2cc(O)cc(-c3cccc4[nH]ccc34)c2)cn1 [5-[3-Hydroxy-5-(1H-indol-4-yl)-phenylamino]-pyridine-2-carbonitrile] | < 20 µM
CN(C)c1cc(C(=O)c2cc(NS(C)(=O)=O)cc(-c3cccc4[nH]ccc34)c2)ccn1 [N-[3-(2-Dimethylamino-pyridine-4-carbonyl)-5-(1H-indol-4-yl)-phenyl]-methanesulfonamide] | < 20 µM
CC(=O)Nc1cc(-c2ccncc2)cc(-c2cccc3[nH]ccc23)c1 [N-[3-(1H-Indol-4-yl)-5-pyridin-4-yl-phenyl]-acetamide] | < 20 µM
COc1ccc(-c2cc(NC(C)=O)cc(-c3cccc4[nH]ccc34)c2)cn1 [N-[3-(1H-Indol-4-yl)-5-(6-methoxy-pyridin-3-yl)-phenyl]-acetamide] | < 20 µM
COc1cc(C(=O)c2cc(NS(C)(=O)=O)cc(-c3cccc4[nH]ccc34)c2)ccn1 [N-[3-(1H-Indol-4-yl)-5-(2-methoxy-pyridine-4-carbonyl)-phenyl]-methanesulfonamide] | < 20 µM
